From patent publication US20060270596A1
These are yes or no findings as the source states them, for the method shown. For part of these data: In cells and extracts the contact can be indirect. Some binding calls cover weakened binding; strength is not graded here. For part of these data: Sequences can lack the tags named with a protein.

By UniProt entry, the sequences of proteins in these tests, tags left out. Where a name states a change or a piece, a line headed by the entry shows the natural chain unless it says otherwise. Residues count along the entry.
UniProt P02778: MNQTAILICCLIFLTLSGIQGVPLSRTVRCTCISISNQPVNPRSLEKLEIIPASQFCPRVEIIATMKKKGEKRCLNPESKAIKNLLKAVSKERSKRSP
UniProt Q99731: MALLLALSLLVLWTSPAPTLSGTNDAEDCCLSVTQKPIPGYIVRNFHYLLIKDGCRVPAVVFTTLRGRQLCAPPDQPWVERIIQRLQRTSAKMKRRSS
UniProt O00585: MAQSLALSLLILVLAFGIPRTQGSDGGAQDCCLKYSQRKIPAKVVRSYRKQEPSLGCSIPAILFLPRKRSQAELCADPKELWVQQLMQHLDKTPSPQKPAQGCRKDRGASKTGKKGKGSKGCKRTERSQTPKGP
UniProt P13500: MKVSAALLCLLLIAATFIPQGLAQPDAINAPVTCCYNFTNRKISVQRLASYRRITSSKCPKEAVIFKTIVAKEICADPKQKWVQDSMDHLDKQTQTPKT
UniProt P48061, residues 1-89: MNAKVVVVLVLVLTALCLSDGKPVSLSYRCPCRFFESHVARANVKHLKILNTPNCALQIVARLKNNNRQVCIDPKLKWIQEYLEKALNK
UniProt Q99616: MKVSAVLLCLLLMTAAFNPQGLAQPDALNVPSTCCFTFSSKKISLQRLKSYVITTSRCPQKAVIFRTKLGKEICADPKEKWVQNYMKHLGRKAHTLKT

Experiments:
[1] = target: human chemokine IP10/CXCL10, mature form (amino acids 22-98) (human) (UniProt P02778); test: yeast two-hybrid
[2] = target: T1, human chemokine MIG/CXCL9, mature form (amino acids 23-125) (human) (UniProt Q07325); test: yeast two-hybrid
T1 sequence: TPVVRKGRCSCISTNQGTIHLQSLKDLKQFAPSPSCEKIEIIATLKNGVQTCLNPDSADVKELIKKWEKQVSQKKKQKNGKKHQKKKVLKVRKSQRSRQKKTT

[3] = target: T1, human chemokine MIG/CXCL9, mature form (amino acids 23-125) (human); test: yeast two-hybrid, chemokine bait and THAP1 prey
[4] = target: T2, partial human PAR4 from the two-hybrid library clones (positions 193-342) (human) (UniProt Q96IZ0); test: yeast two-hybrid screen of HEVEC cDNA library with THAP1 bait
T2 sequence: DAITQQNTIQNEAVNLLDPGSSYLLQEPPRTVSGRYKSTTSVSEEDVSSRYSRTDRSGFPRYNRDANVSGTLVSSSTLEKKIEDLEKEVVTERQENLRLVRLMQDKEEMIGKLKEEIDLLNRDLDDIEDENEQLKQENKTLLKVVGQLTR

[5] = target: T3, GST-Par4DD fusion protein (Par4 amino acids 250-342) (human) (UniProt Q96IZ0); test: GST pull-down, 35S-labelled in vitro translated THAP1 on immobilized GST-Par4DD
T3 sequence: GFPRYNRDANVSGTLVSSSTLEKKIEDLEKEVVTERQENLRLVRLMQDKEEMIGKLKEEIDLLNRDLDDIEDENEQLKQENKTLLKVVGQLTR

[6] = target: T3, GST-Par4DD fusion protein (Par4 amino acids 250-342) (human); test: GST pull-down: in vitro translated 35S-labelled protein on GST-Par4DD immobilised on glutathione sepharose, SDS-PAGE, fluorography
[7] = target: T4, GST-THAP1 fusion protein (THAP1 amino acids 1-213) (human); test: GST pull-down: in vitro translated 35S-labelled protein on GST-THAP1 immobilised on glutathione sepharose, SDS-PAGE, fluorography
T4 sequence: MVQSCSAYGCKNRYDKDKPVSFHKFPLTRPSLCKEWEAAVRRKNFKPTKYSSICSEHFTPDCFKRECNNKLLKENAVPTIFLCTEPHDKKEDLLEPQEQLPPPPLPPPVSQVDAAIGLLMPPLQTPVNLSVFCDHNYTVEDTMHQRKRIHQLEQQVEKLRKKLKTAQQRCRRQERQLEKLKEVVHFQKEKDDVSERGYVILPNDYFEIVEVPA

[8] = target: T3, GST-Par4DD fusion protein (Par4 amino acids 250-342) (human); test: GST pull-down, 35S-labelled in vitro translated mutant
[9] = target: T4, GST-THAP1 fusion protein (THAP1 amino acids 1-213) (human); test: as above
[10] = target: T3, GST-Par4DD fusion protein (Par4 amino acids 250-342) (human); test: GST pull-down, 35S-labelled in vitro translated THAP3 on GST-Par4DD (FIG. 10C)
[11] = target: human chemokine ELC/CCL19, mature form (amino acids 22-98) (human) (UniProt Q99731); test: GST pull-down (FIG. 20C)
[12] = target: human chemokine IP10/CXCL10, mature form (amino acids 22-98) (human) (UniProt P02778); test: GST pull-down (FIG. 20C)
[13] = target: T1, human chemokine MIG/CXCL9, mature form (amino acids 23-125) (human); test: GST pull-down (FIG. 20C)
[14] = target: human chemokine SLC/CCL21, mature form (amino acids 24-134) (human) (UniProt O00585); test: GST pull-down, 35S-labelled in vitro translated SLC/CCL21
[15] = target: human chemokine ELC/CCL19, mature form (amino acids 22-98) (human) (UniProt Q99731); test: GST pull-down, 35S-labelled in vitro translated chemokine
[16] = target: human chemokine IP10/CXCL10, mature form (amino acids 22-98) (human) (UniProt P02778); test: as above
[17] = target: T1, human chemokine MIG/CXCL9, mature form (amino acids 23-125) (human); test: as above
[18] = target: human chemokine SLC/CCL21, mature form (amino acids 24-134) (human) (UniProt O00585); test: as above
[19] = target: human chemokine SLC/CCL21, mature form (amino acids 24-134) (human) (UniProt O00585); test: GST pull-down with GST-THAP1, 35S-labelled in vitro translated chemokine
[20] = target: human chemokine ELC/CCL19, mature form (amino acids 22-98) (human) (UniProt Q99731); test: GST pull-down: in vitro translated 35S-labelled chemokine or cytokine on the GST fusion immobilised on glutathione sepharose, SDS-PAGE, fluorography
[21] = target: human chemokine IP10/CXCL10, mature form (amino acids 22-98) (human) (UniProt P02778); test: as above
[22] = target: T1, human chemokine MIG/CXCL9, mature form (amino acids 23-125) (human); test: as above
chemokine CCL2 [23] = target: chemokine CCL2 (UniProt P13500); test: GST pull-down, 35S-labelled in vitro translated chemokine
chemokine CXCL12 [24] = target: chemokine CXCL12 (UniProt P48061); test: as above
chemokine CCL2 [25] = target: chemokine CCL2 (UniProt P13500); test: GST pull-down: in vitro translated 35S-labelled chemokine or cytokine on the GST fusion immobilised on glutathione sepharose, SDS-PAGE, fluorography
chemokine CXCL12 [26] = target: chemokine CXCL12 (UniProt P48061); test: as above
[27] = target: human chemokine SLC/CCL21, mature form (amino acids 24-134) (human) (UniProt O00585); test: as above
chemokine CCL13 = chemokine CCL13 (UniProt Q99616); test: GST pull-down, 35S-labelled in vitro translated chemokine

Measured: binding

B1: human THAP1 (THanatos-Associated-Protein-1), full length (protein)
chain: MVQSCSAYGCKNRYDKDKPVSFHKFPLTRPSLCKEWEAAVRRKNFKPTKYSSICSEHFTPDCFKRECNNKLLKENAVPTIFLCTEPHDKKEDLLEPQEQLPPPPLPPPVSQVDAAIGLLMPPLQTPVNLSVFCDHNYTVEDTMHQRKRIHQLEQQVEKLRKKLKTAQQRCRRQERQLEKLKEVVHFQKEKDDVSERGYVILPNDYFEIVEVPA
binds: [1] | [2] | [3] | [4] | [5] | [6] | [7]

B2: THAP1-C1 deletion mutant (amino acids 90-213) (protein)
chain: KEDLLEPQEQLPPPPLPPPVSQVDAAIGLLMPPLQTPVNLSVFCDHNYTVEDTMHQRKRIHQLEQQVEKLRKKLKTAQQRCRRQERQLEKLKEVVHFQKEKDDVSERGYVILPNDYFEIVEVPA
binds: [8] | [9] | [6] | [7]

B3: THAP1-C2 deletion mutant (amino acids 120-213) (protein)
chain: MPPLQTPVNLSVFCDHNYTVEDTMHQRKRIHQLEQQVEKLRKKLKTAQQRCRRQERQLEKLKEVVHFQKEKDDVSERGYVILPNDYFEIVEVPA
binds: [8] | [9] | [6] | [7]

B4: THAP1-C3 deletion mutant (amino acids 143-213) (protein)
chain: MHQRKRIHQLEQQVEKLRKKLKTAQQRCRRQERQLEKLKEVVHFQKEKDDVSERGYVILPNDYFEIVEVPA
binds: [8] | [9] | [6] | [7]

B5: THAP1-N3 deletion mutant (amino acids 1-192) (protein)
chain: MVQSCSAYGCKNRYDKDKPVSFHKFPLTRPSLCKEWEAAVRRKNFKPTKYSSICSEHFTPDCFKRECNNKLLKENAVPTIFLCTEPHDKKEDLLEPQEQLPPPPLPPPVSQVDAAIGLLMPPLQTPVNLSVFCDHNYTVEDTMHQRKRIHQLEQQVEKLRKKLKTAQQRCRRQERQLEKLKEVVHFQKEKDD
binds: [8] | [9] | [6] | [7]

B6: human THAP3, full length (protein)
chain: MPKSCAARQCCNRYSSRRKQLTFHRFPFSRPELLKEWVLNIGRGNFKPKQHTVICSEHFRPECFSAFGNRKNLKHNAVPTVFAFQDPTQQVRENTDPASERGNASSSQKEKVLPEAGAGEDSPGRNMDTALEELQLPPNAEGHVKQVSPRRPQATEAVGRPTGPAGLRRTPNKQPSDHSYALLDLDSLKKKLFLTLKENEKLRKRLQAQRLVMRRMSSRLRACKGHQGLQARLGPEQQS
binds: [10] | [6]

B7: GST-THAP1 fusion protein (THAP1 amino acids 1-213) (protein, not shown: a dimerising Fc or GST)
chain: MVQSCSAYGCKNRYDKDKPVSFHKFPLTRPSLCKEWEAAVRRKNFKPTKYSSICSEHFTPDCFKRECNNKLLKENAVPTIFLCTEPHDKKEDLLEPQEQLPPPPLPPPVSQVDAAIGLLMPPLQTPVNLSVFCDHNYTVEDTMHQRKRIHQLEQQVEKLRKKLKTAQQRCRRQERQLEKLKEVVHFQKEKDDVSERGYVILPNDYFEIVEVPA
binds: [11] | [12] | [13] | [14] | [15] | [16] | [17] | [18] | [19] | [20] | [21] | [22]

B8: GST-THAP1 126-213 (chemokine-binding domain of THAP1, positive control) (protein, not shown: a dimerising Fc or GST)
chain: PVNLSVFCDHNYTVEDTMHQRKRIHQLEQQVEKLRKKLKTAQQRCRRQERQLEKLKEVVHFQKEKDDVSERGYVILPNDYFEIVEVPA
binds: chemokine CCL2 [23] | chemokine CXCL12 [24] | [17] | [18] | chemokine CCL2 [25] | chemokine CXCL12 [26] | [22] | [27]

B9: GST-THAP7 233-309 (chemokine-binding domain of THAP7) (protein, not shown: a dimerising Fc or GST)
chain: QVGSALLWKRRAEAALDALDKAQRQLQACKRREQRLRLRLTKLQQERAREKRAQADARQTLKEHVQDFAMQLSSSMA
binds: chemokine CCL13 | chemokine CCL2 [23] | [18]

B10: GST-THAP8 125-274 (chemokine-binding domain of THAP8) (protein, not shown: a dimerising Fc or GST)
chain: SGPVRLVVLGPTSGSPKTVATMLLTPLAPAPTPERSQPEVPAQQAQTGLGPVLGALQRRVRRLQRCQERHQAQLQALERLAQQLHGESLLARARRGLQRLTTAQTLGPEESQTFTIICGGPDIAMVLAQDPAPATVDAKPELLDTRIPSA
binds: chemokine CCL13 | chemokine CCL2 [23] | [18]
